Results are given in words; binding and its absence hold for the method and conditions named.
Biological target: T1, full-length ABCB6/HMT-1 as split-ubiquitin bait (HMT-1::Cub) (C. elegans) (UniProt G5EFD4)
T1 sequence: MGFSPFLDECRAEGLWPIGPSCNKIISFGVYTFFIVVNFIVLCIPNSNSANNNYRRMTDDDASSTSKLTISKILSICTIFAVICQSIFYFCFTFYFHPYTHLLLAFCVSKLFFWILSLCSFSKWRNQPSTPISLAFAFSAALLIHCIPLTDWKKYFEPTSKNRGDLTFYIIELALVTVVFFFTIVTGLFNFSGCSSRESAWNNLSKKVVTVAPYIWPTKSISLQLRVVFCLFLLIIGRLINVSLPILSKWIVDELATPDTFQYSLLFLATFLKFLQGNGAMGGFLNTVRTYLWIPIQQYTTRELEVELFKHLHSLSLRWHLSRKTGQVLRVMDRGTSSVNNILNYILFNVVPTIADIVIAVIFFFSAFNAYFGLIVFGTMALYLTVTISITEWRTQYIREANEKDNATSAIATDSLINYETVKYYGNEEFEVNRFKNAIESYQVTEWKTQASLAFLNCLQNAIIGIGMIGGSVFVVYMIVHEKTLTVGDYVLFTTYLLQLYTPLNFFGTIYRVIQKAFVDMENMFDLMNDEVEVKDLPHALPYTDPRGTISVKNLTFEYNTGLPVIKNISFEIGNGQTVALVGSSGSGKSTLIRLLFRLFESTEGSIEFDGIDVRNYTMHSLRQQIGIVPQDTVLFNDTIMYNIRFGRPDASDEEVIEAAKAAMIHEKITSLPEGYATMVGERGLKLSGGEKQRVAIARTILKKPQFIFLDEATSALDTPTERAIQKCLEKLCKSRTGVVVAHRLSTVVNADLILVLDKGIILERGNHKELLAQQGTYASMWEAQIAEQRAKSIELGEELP
Experiment: two-hybrid; mating-based split-ubiquitin system (mbSUS) in yeast; CubPLV bait, NubG prey; growth on SC medium lacking adenine, histidine, leucine, tryptophan; β-galactosidase (X-gal) to confirm

binding: no binding
B1: ABCB6/HMT-1^Δ43 as split-ubiquitin prey (ABCB6/HMT-1^Δ43::NubG) (domain or fragment, UniProt G5EFD4 1-758)
chain: MGFSPFLDECRAEGLWPIGPSCNKIISFGVYTFFIVVNFIVLCIPNSNSANNNYRRMTDDDASSTSKLTISKILSICTIFAVICQSIFYFCFTFYFHPYTHLLLAFCVSKLFFWILSLCSFSKWRNQPSTPISLAFAFSAALLIHCIPLTDWKKYFEPTSKNRGDLTFYIIELALVTVVFFFTIVTGLFNFSGCSSRESAWNNLSKKVVTVAPYIWPTKSISLQLRVVFCLFLLIIGRLINVSLPILSKWIVDELATPDTFQYSLLFLATFLKFLQGNGAMGGFLNTVRTYLWIPIQQYTTRELEVELFKHLHSLSLRWHLSRKTGQVLRVMDRGTSSVNNILNYILFNVVPTIADIVIAVIFFFSAFNAYFGLIVFGTMALYLTVTISITEWRTQYIREANEKDNATSAIATDSLINYETVKYYGNEEFEVNRFKNAIESYQVTEWKTQASLAFLNCLQNAIIGIGMIGGSVFVVYMIVHEKTLTVGDYVLFTTYLLQLYTPLNFFGTIYRVIQKAFVDMENMFDLMNDEVEVKDLPHALPYTDPRGTISVKNLTFEYNTGLPVIKNISFEIGNGQTVALVGSSGSGKSTLIRLLFRLFESTEGSIEFDGIDVRNYTMHSLRQQIGIVPQDTVLFNDTIMYNIRFGRPDASDEEVIEAAKAAMIHEKITSLPEGYATMVGERGLKLSGGEKQRVAIARTILKKPQFIFLDEATSALDTPTERAIQKCLEKLCKSRTGVVVAHRLSTVVNADLILVLD

Source: article PMC6077975
